Laboratory results from US20240285727A1, “NOVEL THERAPEUTIC PEPTIDES FOR NEURODEGENERATION” (UNIVERSITY OF SOUTHERN CALIFORNIA, priority 2021, published 2024).
No constants are given. Whether binding was seen depends on the method and setting. For some assays here: Binding seen in cells or lysates may run through a third protein. Some binding calls cover weakened binding; strength is not graded here.

Columns and labels:
[1] = biological target: T1, mitofilin (IMMT), endogenous, in SH-SY5Y neural cells / cell lysate (human) (UniProt Q16891); assay: reciprocal immunoprecipitation from SHMOOSE-treated neural cells, Western blot
T1 sequence (looked up): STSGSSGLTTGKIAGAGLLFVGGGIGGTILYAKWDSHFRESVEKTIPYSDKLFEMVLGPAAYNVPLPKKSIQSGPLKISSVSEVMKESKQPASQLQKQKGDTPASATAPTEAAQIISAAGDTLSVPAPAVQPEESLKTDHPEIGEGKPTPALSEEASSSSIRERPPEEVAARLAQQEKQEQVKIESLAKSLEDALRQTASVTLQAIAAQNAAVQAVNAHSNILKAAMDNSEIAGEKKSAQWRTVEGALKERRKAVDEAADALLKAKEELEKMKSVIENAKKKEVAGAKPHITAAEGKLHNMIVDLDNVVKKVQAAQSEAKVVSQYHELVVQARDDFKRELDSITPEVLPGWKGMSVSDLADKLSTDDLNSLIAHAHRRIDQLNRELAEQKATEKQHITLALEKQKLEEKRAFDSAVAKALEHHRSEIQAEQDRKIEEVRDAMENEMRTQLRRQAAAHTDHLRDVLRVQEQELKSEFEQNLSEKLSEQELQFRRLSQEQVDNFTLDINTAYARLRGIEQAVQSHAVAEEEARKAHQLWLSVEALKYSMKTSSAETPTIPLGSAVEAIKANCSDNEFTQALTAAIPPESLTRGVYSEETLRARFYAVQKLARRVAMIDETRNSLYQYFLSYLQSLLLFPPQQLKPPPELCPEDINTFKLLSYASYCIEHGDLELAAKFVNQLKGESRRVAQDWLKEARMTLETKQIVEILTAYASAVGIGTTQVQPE

ATP5 subunit B (ATP5B) = ATP5 subunit B (ATP5B) (UniProt P06576); assay: cell-free binding (FIG. 9C); method not described
ATP5 subunit O (ATP5O) = biological target: T2, ATP5 subunit O (ATP5O) (UniProt P48047); assay: cell-free binding (FIG. 9C); method not described
T2 sequence (looked up): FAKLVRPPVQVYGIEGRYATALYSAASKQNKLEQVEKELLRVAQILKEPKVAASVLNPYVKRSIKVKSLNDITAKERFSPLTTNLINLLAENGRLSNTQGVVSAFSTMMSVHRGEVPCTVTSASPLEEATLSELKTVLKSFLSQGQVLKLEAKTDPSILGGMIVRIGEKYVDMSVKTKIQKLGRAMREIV

[2] = biological target: T1, mitofilin (IMMT), endogenous, in SH-SY5Y neural cells / cell lysate (human); assay: reciprocal co-immunoprecipitation with SHMOOSE antibody or mitofilin antibody, Western blot (FIG. 5B)
[3] = biological target: T1, mitofilin (IMMT), endogenous, in SH-SY5Y neural cells / cell lysate (human); assay: summary of co-immunoprecipitation and dot blot results

Measured: binding

B1: SHMOOSE (Small Human Mitochondrial Open reading frame Over the SErine-tRNA) peptide (peptide)
peptide: MPPCLTTWLSQLLKDNSYPLVLGPKNFGATPNKSNNHAHYYNHPNPDFPNSPHPYHPR
notes: Endogenous SHMOOSE in Western blots is treated as the same molecule; also called wild type SHMOOSE; synthetic SHMOOSE
binds: [1] | ATP5 subunit B (ATP5B) | ATP5 subunit O (ATP5O) | [2] | [3]
